Measurements from patent US20100218416A1, “HYDROXYMETHYLFURFURAL ETHERS FROM SUGARS OR HMF AND BRANCHED ALCOHOLS” (FURANIX TECHNOLOGIES B.V., priority 2007, published 2010).

Test: Cetane number of blend with additive free diesel fuel (ASTM D 6890)
Type: physicochemical
Conditions: 0.1 vol % blend with additive free diesel fuel
Description: Oxygenated fuel additives may reduce the natural cetane number of the base diesel fuel. A 0.1 vol % blend of tBMF with additive free diesel fuel was prepared at an outside laboratory for cetane determination according to an ASTM D 6890 certified method.

With `CC(C)(C)OCc1ccc(C=O)o1` [tBMF, 5-(tert-Butoxymethyl)furfural] the “increase of cetane number versus reference additive-free diesel” value was 0.5 and the average cetane number (reference diesel 52.5) was 53.0.
